{"source": "PubChem BioAssay AID1259405 (NCATS, 2018)", "purpose": "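Knock-downs that lift recombinant protein yield in hamster ovary cells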 (primary screen)", "cell system": "Chinese hamster CHO-K1 ovary cells with stable secreted eGFP expression", "reagents": "single siRNA against mouse genes, 0.8 pmol siRNA per well (2 µl of 400 nM stock)", "timing": "3 days", "detection": "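Per-well intracellular GFP measured by laser scanning cytometry, plus viability from ATP luminescence, each relative to plate median of non-targeting control wells, in %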", "direction": "GFP, % of control: higher = more GFP per well, higher productivity; viability (ATP), % of control: higher = more viable cells (more ATP)", "rule for the call": "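a knock-down is called active if GFP reaches 120% or more of non-targeting control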", "note": "In all, the deposit lists about 50,000 reagents; this is an unselected part. About 4,000 of them (8%) were called active. 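Mouse siRNA library applied to hamster cells; one well for each siRNA.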 Unmarked entries are inactive. Reagents against one gene are numbered here."}
{"gene": "Dcn (decorin)", "reagent no.": 1, "GFP, % of control": 108, "viability (ATP), % of control": 84.4}
{"gene": "Dcn (decorin)", "reagent no.": 2, "GFP, % of control": 51.4, "viability (ATP), % of control": 86}
{"gene": "Dcn (decorin)", "reagent no.": 3, "GFP, % of control": 84.7, "viability (ATP), % of control": 79.2}
{"gene": "Sofu1 (sperm-oocyte fusion factor 1)", "reagent no.": 1, "GFP, % of control": 37.8, "viability (ATP), % of control": 71.7}
{"gene": "Sofu1 (sperm-oocyte fusion factor 1)", "reagent no.": 2, "GFP, % of control": 43.4, "viability (ATP), % of control": 50.9}
{"gene": "Sofu1 (sperm-oocyte fusion factor 1)", "reagent no.": 3, "GFP, % of control": 73.5, "viability (ATP), % of control": 85.2}
{"gene": "Dgcr8 (DGCR8, microprocessor complex subunit)", "reagent no.": 1, "GFP, % of control": 89.5, "viability (ATP), % of control": 90.4}
{"gene": "Dgcr8 (DGCR8, microprocessor complex subunit)", "reagent no.": 2, "GFP, % of control": "120 (active)", "viability (ATP), % of control": 134}
{"gene": "Dgcr8 (DGCR8, microprocessor complex subunit)", "reagent no.": 3, "GFP, % of control": 47, "viability (ATP), % of control": 68.2}
{"gene": "Ctsc (cathepsin C)", "reagent no.": 1, "GFP, % of control": 108, "viability (ATP), % of control": 125}
{"gene": "Ctsc (cathepsin C)", "reagent no.": 2, "GFP, % of control": 115, "viability (ATP), % of control": 71.7}
{"gene": "Ctsc (cathepsin C)", "reagent no.": 3, "GFP, % of control": 63, "viability (ATP), % of control": 42.6}
{"gene": "Hddc2 (HD domain containing 2)", "reagent no.": 1, "GFP, % of control": 52, "viability (ATP), % of control": 78.3}
{"gene": "Hddc2 (HD domain containing 2)", "reagent no.": 2, "GFP, % of control": 108, "viability (ATP), % of control": 82.4}
{"gene": "Hddc2 (HD domain containing 2)", "reagent no.": 3, "GFP, % of control": 70.5, "viability (ATP), % of control": 53.1}
{"gene": "Hrh1 (histamine receptor H1)", "reagent no.": 1, "GFP, % of control": 42.7, "viability (ATP), % of control": 76.4}
{"gene": "Hrh1 (histamine receptor H1)", "reagent no.": 2, "GFP, % of control": 84, "viability (ATP), % of control": 92.3}
{"gene": "Hrh1 (histamine receptor H1)", "reagent no.": 3, "GFP, % of control": 76.9, "viability (ATP), % of control": 82.4}
{"gene": "Kcne1", "reagent no.": 1, "GFP, % of control": 66.3, "viability (ATP), % of control": 76}
{"gene": "Kcne1", "reagent no.": 2, "GFP, % of control": 76.3, "viability (ATP), % of control": 78.1}
{"gene": "Kcne1", "reagent no.": 3, "GFP, % of control": "125 (active)", "viability (ATP), % of control": 75.4}
{"gene": "Lrrc18 (leucine rich repeat containing 18)", "reagent no.": 1, "GFP, % of control": 64.3, "viability (ATP), % of control": 60.1}
{"gene": "Lrrc18 (leucine rich repeat containing 18)", "reagent no.": 2, "GFP, % of control": 79.8, "viability (ATP), % of control": 77.1}
{"gene": "Lrrc18 (leucine rich repeat containing 18)", "reagent no.": 3, "GFP, % of control": 93, "viability (ATP), % of control": 81.7}
{"gene": "Trim52 (tripartite motif-containing 52)", "reagent no.": 1, "GFP, % of control": 85.6, "viability (ATP), % of control": 77.4}
{"gene": "Trim52 (tripartite motif-containing 52)", "reagent no.": 2, "GFP, % of control": 105, "viability (ATP), % of control": 91.4}
{"gene": "Trim52 (tripartite motif-containing 52)", "reagent no.": 3, "GFP, % of control": 114, "viability (ATP), % of control": 116}
{"gene": "Cabin1 (calcineurin binding protein 1)", "reagent no.": 1, "GFP, % of control": 72.6, "viability (ATP), % of control": 84.5}
{"gene": "Cabin1 (calcineurin binding protein 1)", "reagent no.": 2, "GFP, % of control": 86.6, "viability (ATP), % of control": 93.9}
{"gene": "Cabin1 (calcineurin binding protein 1)", "reagent no.": 3, "GFP, % of control": 92.6, "viability (ATP), % of control": 137}
{"gene": "Dusp12 (dual specificity phosphatase 12)", "reagent no.": 1, "GFP, % of control": 91.9, "viability (ATP), % of control": 84.9}
{"gene": "Dusp12 (dual specificity phosphatase 12)", "reagent no.": 2, "GFP, % of control": 66.9, "viability (ATP), % of control": 68.2}
{"gene": "Dusp12 (dual specificity phosphatase 12)", "reagent no.": 3, "GFP, % of control": 78.2, "viability (ATP), % of control": 80}
{"gene": "Pcx (pyruvate carboxylase)", "reagent no.": 1, "GFP, % of control": "154 (active)", "viability (ATP), % of control": 71.1}
{"gene": "Pcx (pyruvate carboxylase)", "reagent no.": 2, "GFP, % of control": 94, "viability (ATP), % of control": 81.1}
{"gene": "Pcx (pyruvate carboxylase)", "reagent no.": 3, "GFP, % of control": 100, "viability (ATP), % of control": 113}
{"gene": "Cdr2 (cerebellar degeneration-related 2)", "reagent no.": 1, "GFP, % of control": 68.5, "viability (ATP), % of control": 83.3}
{"gene": "Cdr2 (cerebellar degeneration-related 2)", "reagent no.": 2, "GFP, % of control": 69.7, "viability (ATP), % of control": 73.9}
{"gene": "Cdr2 (cerebellar degeneration-related 2)", "reagent no.": 3, "GFP, % of control": 63.4, "viability (ATP), % of control": 52.5}
{"gene": "Dlc1 (deleted in liver cancer 1)", "reagent no.": 1, "GFP, % of control": 76.6, "viability (ATP), % of control": 41.6}
{"gene": "Dlc1 (deleted in liver cancer 1)", "reagent no.": 2, "GFP, % of control": 35.3, "viability (ATP), % of control": 26.4}
{"gene": "Dlc1 (deleted in liver cancer 1)", "reagent no.": 3, "GFP, % of control": 38.4, "viability (ATP), % of control": 54.1}
{"gene": "Dlc1 (deleted in liver cancer 1)", "reagent no.": 4, "GFP, % of control": 86.7, "viability (ATP), % of control": 78.3}
{"gene": "Dlc1 (deleted in liver cancer 1)", "reagent no.": 5, "GFP, % of control": 96.7, "viability (ATP), % of control": 95.3}
{"gene": "Dlc1 (deleted in liver cancer 1)", "reagent no.": 6, "GFP, % of control": 63.2, "viability (ATP), % of control": 63.1}

Targets above whose target name begins with T or t:
{"gene": "Trim52 (tripartite motif-containing 52)", "reagent no.": 1, "GFP, % of control": 85.6, "viability (ATP), % of control": 77.4}
{"gene": "Trim52 (tripartite motif-containing 52)", "reagent no.": 2, "GFP, % of control": 105, "viability (ATP), % of control": 91.4}
{"gene": "Trim52 (tripartite motif-containing 52)", "reagent no.": 3, "GFP, % of control": 114, "viability (ATP), % of control": 116}
